In PubChem BioAssay AID248 (DTP/NCI, 2004):
The list is a part of this screen's results and no random one: it gathers tests that were run many times, whatever their T/C, doses with no T/C, and many T/C values between a quarter and a half above the control. Other doses and runs of a compound stand elsewhere. T/C: endpoint of the treated group in % of that of the vehicle group. Some doses have a count of surviving animals in place of a T/C: the source holds a T/C of zero for them, seemingly a mark for toxic or unscored doses. Some survivor counts are full or nearly so, which does not show that the dose was tolerated: survival well below the control is almost never listed, so the zero probably covers shortened survival too. Counts of survivors are from the toxicity check (mostly the fifth day) where no day follows; animals may have died later. Schedules are NCI's codes, read here as Q, the interval in days (D) or hours (H), X, the number of doses. Some schedule codes hold Z or #, which are not explained here. Some doses were run more than once; the values are given in rising order. Where survival is the endpoint, this PubChem deposit counts one and a half times the control or more as active, and values a quarter to a half above the control carry no call in these data; other NCI protocols may use other cut-offs. Brackets with × say how often a value occurs here. Some T/C values are followed by the survivors on the day toxicity was checked, most often the fifth; where none is given, no animal had died by that day.

System: L1210 leukemia ip in BDF1 mice, survival T/C
Assay: NCI In Vivo Anticancer Drug Screen. Data for tumor model L1210 Leukemia (intraperitoneal) in B6D2F1 (BDF1) mice
Settings: T/C endpoint: mean survival time, higher T/C = longer survival
[1] = dose: 400.0 mg/kg/injection, schedule: Q04DX003 (ip), vehicle: saline
[2] = dose: 6.25 mg/kg/injection, schedule: Q01DX009 (ip), vehicle: other
[3] = dose: 100.0 mg/kg/injection, schedule: Q01DX009 (ip), vehicle: saline with Tween-80
[4] = dose: 100.0 mg/kg/injection, schedule: Q04DX003 (ip), vehicle: Klucel (hydroxypropylcellulose) (HPC)
[5] = dose: 200.0 mg/kg/injection, schedule: Q04DX003 (ip), vehicle: Klucel (hydroxypropylcellulose) (HPC)
[6] = dose: 400.0 mg/kg/injection, schedule: Q04DX003 (ip), vehicle: Klucel (hydroxypropylcellulose) (HPC)
[7] = dose: 300.0 mg/kg/injection, schedule: Q01DX001 (ip), vehicle: saline
[8] = dose: 80.0 mg/kg/injection, schedule: Q01DX001 (ip), vehicle: saline
[9] = dose: 200.0 mg/kg/injection, schedule: Q01DX009 (ip), vehicle: saline with Tween-80
[10] = dose: 400.0 mg/kg/injection, schedule: Q01DX001 (ip), vehicle: other
[11] = dose: 400.0 mg/kg/injection, schedule: Q04DX002 (ip), vehicle: saline
[12] = dose: 300.0 mg/kg/injection, schedule: Q01DX001 (ip), vehicle: carboxymethylcellulose (CMC)

Compound: N=C(N)c1ccc(OCCCOc2ccc(C(=N)N)cc2Br)c(Br)c1
- T/C (dose: 12.0 mg/kg/injection, schedule: Q01DX Z (ip), vehicle: methylcellulose (MC)): 127 % of control
- T/C (dose: 25.0 mg/kg/injection, schedule: Q01DX009 (ip), vehicle: saline): 129 [4 of 6 alive] and 134 % of control
- survivor count (dose: 90.0 mg/kg/injection, schedule: Q01DX Z (ip), vehicle: methylcellulose (MC)): 0 of 6
- survivor count (dose: 100.0 mg/kg/injection, schedule: Q04DX003 (ip), vehicle: saline): 1 of 6
- survivor count (dose: 200.0 mg/kg/injection, schedule: Q04DX003 (ip), vehicle: saline): 0 of 6
- survivor count [1]: 2 of 6

Compound: Cc1ccc(S(=O)(=O)NCCN)cc1
- survivor count [1]: 0 of 6

Compound: COC(=O)COc1cc(Cl)c(Cl)cc1Cl
- survivor count (dose: 400.0 mg/kg/injection, schedule: Q04DX002 (ip), vehicle: saline with Tween-80): 0 of 3

Compound: CCC[CH2][Sn](=[S])[CH2]CCC
- T/C (dose: 1.56 mg/kg/injection, schedule: Q01DX009 (ip), vehicle: other): 138 % of control
- T/C [2]: 131 % of control
- survivor count [2]: 6 of 6
- survivor count (dose: 12.5 mg/kg/injection, schedule: Q04DX003 (ip), vehicle: other): 6 of 6
- survivor count (dose: 25.0 mg/kg/injection, schedule: Q01DX009 (ip), vehicle: other): 6 of 6
- survivor count (dose: 25.0 mg/kg/injection, schedule: Q04DX003 (ip), vehicle: other): 6 of 6
- survivor count (dose: 50.0 mg/kg/injection, schedule: Q01DX009 (ip), vehicle: other): 6 of 6
- survivor count (dose: 50.0 mg/kg/injection, schedule: Q04DX003 (ip), vehicle: other): 3 of 6 and 6 of 6

Compound: CC[C@@]1(O)C[C@H](OC2CC(N(C)C)C(O)C(C)O2)c2c(O)c3c(c(O)c2[C@H]1OC1CC(N(C)C)C(O)C(C)O1)C(=O)c1cccc(O)c1C3=O (stereo partly specified)
- survivor count (dose: 1.0 mg/kg/injection, schedule: Q01DX009 (ip), vehicle: saline): 6 of 6
- survivor count (dose: 2.0 mg/kg/injection, schedule: Q01DX009 (ip), vehicle: saline): 4 of 6
- survivor count (dose: 4.0 mg/kg/injection, schedule: Q01DX009 (ip), vehicle: saline): 1 of 6

Compound: CCOC(=O)c1cc(Cl)cc(Cl)c1N=NN(C)C
- T/C [3]: 125 % of control

Compound: C[N+](C)(C)C1(Cc2ccc(Cl)cc2)c2ccccc2-c2ccccc21
- survivor count [4]: 1 of 6
- survivor count [5]: 0 of 6
- survivor count [6]: 0 of 6

Compound: C[N+](C)(C)C1CCCCCCC1
- survivor count [7]: 0 of 6

Compound: c1ccc2c(C3=NCCN3)ccc(C3=NCCN3)c2c1
- survivor count (dose: 60.0 mg/kg/injection, schedule: Q01DX Z (ip), vehicle: saline): 1 of 6
- survivor count (dose: 120.0 mg/kg/injection, schedule: Q01DX Z (ip), vehicle: saline): 0 of 6

Compound: COC12CC3C4=CCOC5CC(=O)N6c7ccccc7C1(CCN2C4)C6C53 (stereo unspecified)
- survivor count (dose: 40.0 mg/kg/injection, schedule: Q01DX001 (ip), vehicle: saline): 0 of 6
- survivor count (dose: 75.0 mg/kg/injection, schedule: Q01DX001 (ip), vehicle: saline): 0 of 6
- survivor count [8]: 0 of 6
- survivor count (dose: 150.0 mg/kg/injection, schedule: Q01DX001 (ip), vehicle: saline): 0 of 6
- survivor count [7]: 0 of 6

Compound: CC(C)CC(C)NCC(C)O (stereo unspecified)
- survivor count (dose: 300.0 mg/kg/injection, schedule: Q01DX001 (ip), vehicle: acid diluted with saline): 0 of 6

Compound: COC(=O)/C=C(\C)Nc1ccc(NC(C)=O)cc1
- survivor count (dose: 400.0 mg/kg/injection, schedule: Q04DX003 (ip), vehicle: acetone): 6 of 6

Compound: C#CC[As+](c1ccccc1)(c1ccccc1)c1ccccc1
- survivor count (dose: 12.5 mg/kg/injection, schedule: Q01DX009 (ip), vehicle: Klucel (hydroxypropylcellulose) (HPC)): 6 of 6
- survivor count (dose: 25.0 mg/kg/injection, schedule: Q01DX009 (ip), vehicle: Klucel (hydroxypropylcellulose) (HPC)): 5 of 6
- survivor count (dose: 25.0 mg/kg/injection, schedule: Q04DX003 (ip), vehicle: Klucel (hydroxypropylcellulose) (HPC)): 6 of 6
- survivor count (dose: 50.0 mg/kg/injection, schedule: Q04DX003 (ip), vehicle: Klucel (hydroxypropylcellulose) (HPC)): 0 of 6
- survivor count [4]: 0 of 6
- survivor count [5]: 0 of 6
- survivor count [6]: 0 of 6

Compound: Cc1ccc(N=Cc2cc(I)cc(I)c2O)cc1.Cc1ccc(N=Cc2cc(I)cc(I)c2O)cc1.[Co]
- survivor count (dose: 100.0 mg/kg/injection, schedule: Q04DX003 (ip), vehicle: saline with Tween-80): 3 of 3

Compound: CCN(CC)CCCNC(=S)NC(C)(C)CC(C)=O
- survivor count (dose: 200.0 mg/kg/injection, schedule: Q01DX009 (ip), vehicle: Klucel (hydroxypropylcellulose) (HPC)): 6 of 6

Compound: CCCC(=O)Nc1cc([N+](=O)[O-])ccc1O
- T/C [3]: 97, 106 (2×), 108 % of control
- T/C [9]: 95 and 100 % of control
- survivor count [9]: 3 of 3
- survivor count (dose: 400.0 mg/kg/injection, schedule: Q01DX009 (ip), vehicle: saline with Tween-80): 0 of 3 and 2 of 6

Compound: Cc1ccc2c(c1)C=C/C(=C/c1cc[n+](C)c3ccccc13)N2C
- survivor count [10]: 1 of 4

Compound: CSC(SC)=C(C#N)C#N
- T/C (dose: 50.0 mg/kg/injection, schedule: Q04DX002 (ip), vehicle: saline): 125 % of control [2 of 3 alive]
- survivor count (dose: 100.0 mg/kg/injection, schedule: Q04DX002 (ip), vehicle: saline): 0 of 3
- survivor count (dose: 200.0 mg/kg/injection, schedule: Q04DX002 (ip), vehicle: saline): 0 of 3
- survivor count [11]: 0 of 3

Compound: CCOC(=O)c1[nH]c2ccccc2c1CN(CC)CC
- survivor count (dose: 150.0 mg/kg/injection, schedule: Q01DX001 (ip), vehicle: carboxymethylcellulose (CMC)): 1 of 6
- survivor count [12]: 2 of 6

Compound: [N-]=[N+]=Nc1ccc(C(=O)NCc2cnc(N)nc2N)cc1
- survivor count (dose: 25.0 mg/kg/injection, schedule: Q04DX002 (ip), vehicle: saline with Tween-80): 3 of 3
- survivor count (dose: 50.0 mg/kg/injection, schedule: Q04DX002 (ip), vehicle: saline with Tween-80): 3 of 3

Compound: CCOC(=O)C=C1CCP(C)CC1 (stereo unspecified)
- survivor count [12]: 0 of 6

Compound: CC1=C(N2CCCC2)CCCC1=O
- survivor count [11]: 0 of 3

Compound: [CH3][Sn]([CH3])=[O]
- survivor count (dose: 50.0 mg/kg/injection, schedule: Q01DX001 (ip), vehicle: other): 2 of 4
- survivor count (dose: 80.0 mg/kg/injection, schedule: Q01DX001 (ip), vehicle: other): 0 of 4
- survivor count [8]: 0 of 6
- survivor count (dose: 100.0 mg/kg/injection, schedule: Q01DX001 (ip), vehicle: other): 0 of 4
- survivor count (dose: 100.0 mg/kg/injection, schedule: Q01DX001 (ip), vehicle: saline): 2 of 6
- survivor count (dose: 200.0 mg/kg/injection, schedule: Q01DX001 (ip), vehicle: other): 0 of 4
- survivor count (dose: 200.0 mg/kg/injection, schedule: Q01DX001 (ip), vehicle: saline): 0 of 6
- survivor count [10]: 0 of 4
- survivor count (dose: 400.0 mg/kg/injection, schedule: Q01DX001 (ip), vehicle: saline): 0 of 6

Compound: CC(C)(C)C(O)C1CCCS1(=O)=O (stereo unspecified)
- survivor count (dose: 100.0 mg/kg/injection, schedule: Q01DX001 (ip), vehicle: Klucel (hydroxypropylcellulose) (HPC)): 0 of 6
- survivor count (dose: 200.0 mg/kg/injection, schedule: Q01DX001 (ip), vehicle: Klucel (hydroxypropylcellulose) (HPC)): 0 of 6
- survivor count (dose: 400.0 mg/kg/injection, schedule: Q01DX001 (ip), vehicle: Klucel (hydroxypropylcellulose) (HPC)): 0 of 6

Compound: O=S(=O)(N/N=C/c1cc(Cl)ccc1O)c1cc(Cl)c(Cl)cc1Cl
- survivor count (dose: 40.0 mg/kg/injection, schedule: Q01DX Z (ip), vehicle: other): 6 of 8
- survivor count (dose: 80.0 mg/kg/injection, schedule: Q01DX Z (ip), vehicle: other): 0 of 8
